The other results are listed elsewhere or left out. Residues, ends and D or L forms follow the SMILES beside them. *: point of attachment. Cbz = O=C(OCc1ccccc1)*
Tests used:
Experiment in all cases: log2 fold change, soluble protein after heating vs DMSO (PISA); higher = thermal stabilisation; K562 cells, 10 uM, 30 min; active = over 0.2 and 3.5 SD of the protein, either way, in both replicates (recomputed)
[1] = compound: C#Cc1cccc(Nc2ncnc3cc(OCCOC)c(OCCOC)cc23)c1 [erlotinib]
Outline: (§1)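 K562 cells (2×10^6 cells/mL) were treated with 10 μM compound for 30 min, and aliquots were heated for 3 min over 48°C-58°C. Pooled aliquots were extracted in PBS with 0.5% NP-40 at 4°C, and the supernatant after 21,000xg for 90 min was measured by TMTpro 16plex LC-MS/MS with channel sums equalised. Reported thermal stability, relative to control samples and from duplicates, is a log2 fold change.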

By UniProt entry, the sequences of proteins in these tests, tags left out. Where a name states a change or a piece, a line headed by the entry shows the natural chain unless it says otherwise.
UniProt Q8TB52: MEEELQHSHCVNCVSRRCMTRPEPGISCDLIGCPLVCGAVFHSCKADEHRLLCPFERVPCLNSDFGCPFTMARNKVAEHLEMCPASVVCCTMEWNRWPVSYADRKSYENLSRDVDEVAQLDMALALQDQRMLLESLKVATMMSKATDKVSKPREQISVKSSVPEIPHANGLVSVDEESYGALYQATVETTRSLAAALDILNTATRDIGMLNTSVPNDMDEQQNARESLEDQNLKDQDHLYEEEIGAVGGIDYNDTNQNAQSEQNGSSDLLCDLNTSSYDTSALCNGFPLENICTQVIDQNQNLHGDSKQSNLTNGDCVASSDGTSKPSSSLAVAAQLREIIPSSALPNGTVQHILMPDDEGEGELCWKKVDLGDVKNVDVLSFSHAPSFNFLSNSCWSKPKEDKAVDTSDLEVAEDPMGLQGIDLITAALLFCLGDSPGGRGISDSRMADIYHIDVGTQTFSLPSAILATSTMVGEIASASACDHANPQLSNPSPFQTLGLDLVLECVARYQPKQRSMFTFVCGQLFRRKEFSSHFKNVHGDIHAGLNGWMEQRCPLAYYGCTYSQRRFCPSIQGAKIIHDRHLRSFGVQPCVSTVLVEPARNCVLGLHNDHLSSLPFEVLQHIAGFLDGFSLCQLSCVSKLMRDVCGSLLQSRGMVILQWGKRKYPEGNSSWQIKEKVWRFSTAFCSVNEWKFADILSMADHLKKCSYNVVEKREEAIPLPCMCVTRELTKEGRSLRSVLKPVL
UniProt Q9UKT4: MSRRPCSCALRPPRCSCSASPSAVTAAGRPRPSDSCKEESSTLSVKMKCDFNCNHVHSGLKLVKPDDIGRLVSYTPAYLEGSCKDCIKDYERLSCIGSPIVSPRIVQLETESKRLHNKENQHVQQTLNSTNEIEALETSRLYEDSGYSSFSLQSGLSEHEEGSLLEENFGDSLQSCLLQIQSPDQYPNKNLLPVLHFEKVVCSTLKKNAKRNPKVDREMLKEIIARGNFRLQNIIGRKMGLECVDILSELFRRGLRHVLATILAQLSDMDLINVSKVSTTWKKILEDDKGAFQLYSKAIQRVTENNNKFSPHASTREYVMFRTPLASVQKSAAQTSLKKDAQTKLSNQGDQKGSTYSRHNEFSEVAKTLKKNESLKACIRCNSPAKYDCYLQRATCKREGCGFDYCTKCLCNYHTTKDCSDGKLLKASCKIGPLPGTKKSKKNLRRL
UniProt Q9NXK8: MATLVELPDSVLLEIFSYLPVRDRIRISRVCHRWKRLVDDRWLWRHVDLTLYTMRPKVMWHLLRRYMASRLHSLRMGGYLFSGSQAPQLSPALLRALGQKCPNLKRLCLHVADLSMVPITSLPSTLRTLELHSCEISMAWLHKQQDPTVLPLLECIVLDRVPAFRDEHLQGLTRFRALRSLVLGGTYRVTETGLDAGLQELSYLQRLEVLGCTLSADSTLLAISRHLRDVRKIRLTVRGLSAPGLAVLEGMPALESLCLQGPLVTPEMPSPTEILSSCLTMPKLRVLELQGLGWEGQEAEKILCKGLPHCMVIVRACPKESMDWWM
UniProt Q9H0X4: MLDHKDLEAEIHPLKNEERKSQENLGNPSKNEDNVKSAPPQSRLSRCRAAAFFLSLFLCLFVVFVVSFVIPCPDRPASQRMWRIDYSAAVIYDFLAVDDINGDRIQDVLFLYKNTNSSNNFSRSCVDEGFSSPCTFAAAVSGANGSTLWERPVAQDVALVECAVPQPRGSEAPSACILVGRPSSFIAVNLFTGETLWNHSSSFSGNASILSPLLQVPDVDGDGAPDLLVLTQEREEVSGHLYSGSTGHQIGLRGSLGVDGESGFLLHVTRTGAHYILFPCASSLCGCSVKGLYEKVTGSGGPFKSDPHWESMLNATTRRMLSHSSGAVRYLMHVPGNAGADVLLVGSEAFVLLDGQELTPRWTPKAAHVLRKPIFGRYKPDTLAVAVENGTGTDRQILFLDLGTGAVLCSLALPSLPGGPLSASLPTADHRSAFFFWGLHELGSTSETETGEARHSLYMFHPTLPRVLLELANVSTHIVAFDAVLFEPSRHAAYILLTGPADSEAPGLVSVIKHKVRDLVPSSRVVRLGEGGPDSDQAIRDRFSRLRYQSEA
UniProt Q13045: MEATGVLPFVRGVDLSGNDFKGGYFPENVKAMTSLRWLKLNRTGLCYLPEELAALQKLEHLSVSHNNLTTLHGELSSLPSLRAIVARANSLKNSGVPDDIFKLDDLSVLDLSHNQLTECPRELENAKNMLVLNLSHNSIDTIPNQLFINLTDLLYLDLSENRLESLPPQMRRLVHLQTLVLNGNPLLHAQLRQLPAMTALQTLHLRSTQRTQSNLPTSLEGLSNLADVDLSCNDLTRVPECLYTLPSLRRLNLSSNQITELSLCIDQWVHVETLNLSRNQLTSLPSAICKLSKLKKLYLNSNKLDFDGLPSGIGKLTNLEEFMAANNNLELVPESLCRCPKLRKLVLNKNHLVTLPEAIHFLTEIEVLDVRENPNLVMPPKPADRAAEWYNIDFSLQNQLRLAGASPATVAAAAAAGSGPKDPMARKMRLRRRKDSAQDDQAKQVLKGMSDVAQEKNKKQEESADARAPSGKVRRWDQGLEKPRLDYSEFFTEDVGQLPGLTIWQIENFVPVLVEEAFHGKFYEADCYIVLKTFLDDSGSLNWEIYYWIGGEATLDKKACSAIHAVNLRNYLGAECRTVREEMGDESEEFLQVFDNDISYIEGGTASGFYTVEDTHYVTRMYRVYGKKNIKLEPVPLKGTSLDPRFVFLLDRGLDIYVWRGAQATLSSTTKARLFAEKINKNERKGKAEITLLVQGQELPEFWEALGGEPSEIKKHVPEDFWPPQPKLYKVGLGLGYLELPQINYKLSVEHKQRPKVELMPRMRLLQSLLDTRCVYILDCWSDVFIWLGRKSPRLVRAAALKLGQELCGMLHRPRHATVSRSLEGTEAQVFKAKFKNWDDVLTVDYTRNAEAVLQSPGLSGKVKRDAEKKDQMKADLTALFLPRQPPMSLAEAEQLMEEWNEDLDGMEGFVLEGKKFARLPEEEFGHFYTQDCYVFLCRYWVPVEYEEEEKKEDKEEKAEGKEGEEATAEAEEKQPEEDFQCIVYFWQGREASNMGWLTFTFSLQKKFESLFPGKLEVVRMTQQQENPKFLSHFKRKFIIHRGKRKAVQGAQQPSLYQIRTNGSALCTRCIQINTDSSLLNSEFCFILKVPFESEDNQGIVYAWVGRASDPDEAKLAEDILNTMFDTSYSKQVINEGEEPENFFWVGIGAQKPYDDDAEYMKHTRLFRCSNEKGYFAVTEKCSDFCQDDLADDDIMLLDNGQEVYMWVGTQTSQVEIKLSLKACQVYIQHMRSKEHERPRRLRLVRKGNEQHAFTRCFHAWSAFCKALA
UniProt P49327, whole entry, looked up: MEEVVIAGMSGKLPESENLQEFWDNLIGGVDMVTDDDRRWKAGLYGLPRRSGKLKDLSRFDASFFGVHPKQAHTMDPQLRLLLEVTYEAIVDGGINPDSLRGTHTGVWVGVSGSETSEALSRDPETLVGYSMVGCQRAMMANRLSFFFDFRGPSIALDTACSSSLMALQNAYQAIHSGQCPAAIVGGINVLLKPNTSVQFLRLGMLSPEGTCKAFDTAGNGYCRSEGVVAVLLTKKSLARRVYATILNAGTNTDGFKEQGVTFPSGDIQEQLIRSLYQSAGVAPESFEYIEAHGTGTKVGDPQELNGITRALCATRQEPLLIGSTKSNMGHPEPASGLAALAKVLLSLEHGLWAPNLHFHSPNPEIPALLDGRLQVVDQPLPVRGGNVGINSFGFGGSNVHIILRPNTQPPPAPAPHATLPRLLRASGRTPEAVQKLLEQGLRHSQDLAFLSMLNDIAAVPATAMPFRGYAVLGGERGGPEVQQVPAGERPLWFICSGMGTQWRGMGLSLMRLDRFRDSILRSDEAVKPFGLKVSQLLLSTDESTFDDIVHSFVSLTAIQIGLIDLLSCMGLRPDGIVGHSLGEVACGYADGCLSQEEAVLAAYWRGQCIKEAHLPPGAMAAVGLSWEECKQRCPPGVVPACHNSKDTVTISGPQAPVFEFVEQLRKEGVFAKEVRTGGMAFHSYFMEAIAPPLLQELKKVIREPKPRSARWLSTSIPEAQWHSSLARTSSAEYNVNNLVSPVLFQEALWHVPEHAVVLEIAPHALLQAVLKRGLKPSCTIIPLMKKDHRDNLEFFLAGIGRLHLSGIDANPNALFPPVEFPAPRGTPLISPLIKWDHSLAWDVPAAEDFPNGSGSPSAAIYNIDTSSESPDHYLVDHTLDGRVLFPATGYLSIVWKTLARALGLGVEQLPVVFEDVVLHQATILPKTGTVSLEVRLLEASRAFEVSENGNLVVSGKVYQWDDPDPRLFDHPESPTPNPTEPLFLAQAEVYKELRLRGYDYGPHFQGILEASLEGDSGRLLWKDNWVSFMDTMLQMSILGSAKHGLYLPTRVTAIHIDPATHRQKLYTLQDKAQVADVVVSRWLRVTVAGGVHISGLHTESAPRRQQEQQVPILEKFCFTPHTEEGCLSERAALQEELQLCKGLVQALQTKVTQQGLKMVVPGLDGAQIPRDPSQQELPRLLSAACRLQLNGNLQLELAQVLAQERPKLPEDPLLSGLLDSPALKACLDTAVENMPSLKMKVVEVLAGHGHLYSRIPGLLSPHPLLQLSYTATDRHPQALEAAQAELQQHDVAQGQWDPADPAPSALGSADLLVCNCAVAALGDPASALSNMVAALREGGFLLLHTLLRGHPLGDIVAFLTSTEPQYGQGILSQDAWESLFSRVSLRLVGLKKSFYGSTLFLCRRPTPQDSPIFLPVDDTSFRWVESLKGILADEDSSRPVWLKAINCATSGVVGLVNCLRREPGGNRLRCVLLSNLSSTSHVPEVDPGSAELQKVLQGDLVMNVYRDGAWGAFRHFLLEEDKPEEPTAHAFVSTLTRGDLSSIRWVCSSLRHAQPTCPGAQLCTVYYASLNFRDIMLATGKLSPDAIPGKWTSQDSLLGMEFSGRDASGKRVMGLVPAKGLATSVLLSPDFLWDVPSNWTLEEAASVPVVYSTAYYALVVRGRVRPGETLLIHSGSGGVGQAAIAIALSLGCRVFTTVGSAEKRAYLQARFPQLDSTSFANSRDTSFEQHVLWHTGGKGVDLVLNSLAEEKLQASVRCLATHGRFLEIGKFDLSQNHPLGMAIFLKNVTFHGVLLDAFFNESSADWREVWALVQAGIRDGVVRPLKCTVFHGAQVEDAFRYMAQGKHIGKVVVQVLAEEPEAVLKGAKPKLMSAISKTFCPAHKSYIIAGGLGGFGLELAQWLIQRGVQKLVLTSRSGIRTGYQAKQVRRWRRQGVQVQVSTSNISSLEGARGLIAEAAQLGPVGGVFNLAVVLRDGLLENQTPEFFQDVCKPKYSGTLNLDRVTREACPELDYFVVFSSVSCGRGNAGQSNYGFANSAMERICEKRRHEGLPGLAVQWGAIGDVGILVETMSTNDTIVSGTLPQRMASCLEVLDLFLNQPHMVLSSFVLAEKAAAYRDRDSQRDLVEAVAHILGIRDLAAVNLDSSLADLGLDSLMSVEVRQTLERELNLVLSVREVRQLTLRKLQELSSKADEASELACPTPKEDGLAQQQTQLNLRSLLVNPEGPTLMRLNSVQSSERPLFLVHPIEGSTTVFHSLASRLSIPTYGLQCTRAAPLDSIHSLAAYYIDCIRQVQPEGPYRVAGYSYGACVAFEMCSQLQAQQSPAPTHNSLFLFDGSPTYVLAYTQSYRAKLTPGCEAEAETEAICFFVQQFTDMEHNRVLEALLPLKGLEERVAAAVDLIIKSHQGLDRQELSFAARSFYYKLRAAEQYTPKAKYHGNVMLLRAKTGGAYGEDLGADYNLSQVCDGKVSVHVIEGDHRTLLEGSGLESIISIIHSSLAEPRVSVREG
UniProt Q9NYY8: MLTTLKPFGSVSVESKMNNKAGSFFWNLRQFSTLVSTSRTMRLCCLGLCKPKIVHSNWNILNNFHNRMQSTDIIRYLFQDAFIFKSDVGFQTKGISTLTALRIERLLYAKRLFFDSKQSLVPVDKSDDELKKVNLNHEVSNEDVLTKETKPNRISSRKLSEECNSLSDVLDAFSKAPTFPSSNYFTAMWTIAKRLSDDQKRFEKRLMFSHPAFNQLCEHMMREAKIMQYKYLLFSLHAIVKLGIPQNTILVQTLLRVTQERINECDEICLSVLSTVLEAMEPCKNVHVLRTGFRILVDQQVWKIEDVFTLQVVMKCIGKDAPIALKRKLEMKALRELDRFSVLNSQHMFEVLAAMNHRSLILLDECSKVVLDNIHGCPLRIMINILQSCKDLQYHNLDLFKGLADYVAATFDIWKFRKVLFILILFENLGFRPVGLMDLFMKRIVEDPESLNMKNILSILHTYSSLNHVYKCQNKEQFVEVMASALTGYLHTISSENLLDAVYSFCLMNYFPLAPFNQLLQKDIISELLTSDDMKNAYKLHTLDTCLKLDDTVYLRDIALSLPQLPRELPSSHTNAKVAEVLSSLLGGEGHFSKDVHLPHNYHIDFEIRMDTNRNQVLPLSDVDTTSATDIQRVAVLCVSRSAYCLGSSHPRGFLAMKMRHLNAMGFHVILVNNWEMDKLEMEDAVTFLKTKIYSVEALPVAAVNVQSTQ

[2] = compound: C/C(=N\NC(=O)C1=CC(=CC=C1)S(=O)(=O)N2CCOCC2)/C3=C(C=CC(=C3)Cl)O
Outline: as §1

[3] = compound: C1=CC(=C(C=C1Cl)C2=NC3=NC=CN=C3C(=N2)NC4=CC=NC=C4)F
Outline: as §1

[4] = compound: C1=CC(=CC=C1C2=NC3=C(N2)C=C(C=C3)C(=O)N)OC4=CC=C(C=C4)Cl
Outline: as §1

[5] = compound: C1=CC2=C(C=CC(=C2)/C=C\3/C(=O)NC(=NCC4=CC=CS4)S3)N=C1
Outline: as §1

[6] = compound: C1=CC2=NC=CN=C2C=C1/C=C/3\C(=O)NC(=O)S3
Outline: as §1

[7] = compound: C1=CC=C(C=C1)C2=NC(=C(N2)C3=CC=NC=C3)C4=CC(=C(C=C4)Cl)O
Outline: as §1

[8] = compound: C1=CC=C2C(=C1)C3=NNC4=CC=CC(=C43)C2=O
Outline: as §1

[9] = compound: C1CCN(C1)C(=O)NC2=CC=CC(=C2)NC3=NC=C(C(=N3)NCCC4=CN=CN4)Br
Outline: as §1

[10] = compound: C1CN(CCC1(CC2=CC=C(C=C2)Cl)N)C3=NC=NC4=C3C=CN4
Outline: as §1

[11] = compound: C1COCCN1CCN2C3=CC=CC=C3N=C2NC(=O)C4=CC(=CC=C4)[N+](=O)[O-] [IRAK-1-4 Inhibitor I]
Outline: as §1

[12] = compound: C=CC(=O)N1CCC[C@@H](n2nc(-c3ccc(Oc4ccccc4)cc3)c3c(N)ncnc32)C1 [ibrutinib]
Outline: as §1

[13] = compound: CC(=O)c1cnc2ccc(-c3cc(Cl)c(O)c(Cl)c3)nc2c1N[C@H]1CC[C@H](CN(C)C)CC1
Outline: as §1

[14] = compound: CC(C)(C)Cn1c(N)nc2ccc(-c3[nH]c(C(C)(C)C)nc3-c3ccc(F)cc3)nc21 [ralimetinib]
Outline: as §1

[15] = compound: CC(C)(O)CC(=O)NCCn1ccc2ncnc(Nc3ccc(Oc4cccc(C(F)(F)F)c4)c(Cl)c3)c21
Outline: as §1

[16] = compound: CC(C)C1=C2N=C(C=C(N2N=C1)NCC3=CC=CC=C3)NCCCCCCN
Outline: as §1

[17] = compound: CC(C)C[C@@H](C=O)NC(=O)[C@H](CC(C)C)NC(=O)[C@H](CC(C)C)NC(=O)OCc1ccccc1
Outline: as §1

[18] = compound: CC(C)N(C[C@H]1O[C@@H](n2cnc3c(N)ncnc32)[C@H](O)[C@@H]1O)[C@H]1C[C@@H](CCc2nc3cc(C(C)(C)C)ccc3[nH]2)C1 [pinometostat]
Outline: as §1

[19] = compound: CC1=C(C(CC(=O)N1)C2=CC=C(C=C2)C(F)(F)F)C(=O)NC3=C(C=C4C(=C3)C=NN4)F
Outline: as §1

[20] = compound: CC1=C(C2=C(C=C1)C(=O)C3=CC=CC=C3N2CCCN)C
Outline: as §1

Measured: log2 fold change

FAM78A (UniProt Q5JUQ0)
inactive: [1] 0.036 | [2] 0.025 | [3] -0.143 | [4] 0.062 | [5] 0.021 | [6] 0.026 | [7] -0.09 | [8] 0.076 | [9] -0.093 | [10] 0.025 | [11] -0.039 | [12] 0.004 | [13] -0.064 | [14] -0.095 | [15] -0.135 | [16] -0.19 | [17] 0.064 | [18] 0.167 | [19] -0.025 | [20] 0.007

FLNB isoform 8 (UniProt O75369)
inactive: [1] -0.023 | [2] 0.046 | [3] 0.037 | [4] -0.005 | [5] 0.007 | [6] 0.018 | [7] -0.025 | [8] -0.018 | [9] -0.002 | [10] -0.048 | [11] 0.013 | [12] -0.021 | [13] 0.008 | [14] -0.009 | [15] -0.01 | [16] 0.017 | [17] 0.018 | [18] 0.005 | [19] -0.049 | [20] 0.012

FN1 isoform 1 (UniProt P02751)
inactive: [1] -0.114 | [2] -0.108 | [3] -0.022 | [4] 0.097 | [5] 0.092 | [6] -0.014 | [7] 0.044 | [8] -0.112 | [9] 0.06 | [10] 0.069 | [11] 0.02 | [12] 0.119 | [13] 0.037 | [14] -0.097 | [15] 0.133 | [16] 0.104 | [17] 0.075 | [18] -0.059 | [19] 0.03 | [20] -0.082

FLAD1 (UniProt Q8NFF5)
inactive: [1] 0.009 | [2] 0.01 | [3] 0.065 | [4] 0.054 | [5] 0.041 | [6] -0.02 | [7] -0.019 | [8] 0.046 | [9] 0.008 | [10] -0.002 | [11] 0.044 | [12] 0.035 | [13] -0.02 | [14] -0.112 | [15] -0.008 | [16] -0.017 | [17] 0.029 | [18] -0.032 | [19] -0.016 | [20] 0.006

FBXO30 (UniProt Q8TB52)
inactive: [1] 0.063 | [2] 0.02 | [3] -0.008 | [4] 0.021 | [5] 0.04 | [6] -0.042 | [7] 0.034 | [8] 0.06 | [9] -0.019 | [10] 0.059 | [11] 0.014 | [12] 0.025 | [13] -0.041 | [14] 0.013 | [15] -0.111 | [16] -0.069 | [17] -0.026 | [18] 0.029 | [19] -0.039 | [20] 0.052

FEM1B (UniProt Q9UK73)
inactive: [1] 0.033 | [2] 0.008 | [3] -0.11 | [4] 0.001 | [5] -0.002 | [6] 0.053 | [7] 0.057 | [8] 0.055 | [9] -0.095 | [10] 0.053 | [11] 0.029 | [12] -0.069 | [13] -0.009 | [14] -0.034 | [15] -0.021 | [16] 0.037 | [17] 0.099 | [18] 0.019 | [19] 0.04 | [20] -0.06

FBXO5 (UniProt Q9UKT4)
inactive: [1] -0.014 | [2] 0.117 | [3] 0.003 | [4] -0.007 | [5] -0.079 | [6] 0.086 | [7] -0.04 | [8] 0.01 | [9] 0.008 | [10] 0.028 | [11] 0 | [12] -0.044 | [13] -0.033 | [14] 0.048 | [15] -0.001 | [16] 0.07 | [17] 0.144 | [18] 0.011 | [19] 0.101 | [20] -0.032

FAU (UniProt P62861)
inactive: [1] -0.134 | [2] -0.166 | [3] -0.588 | [4] 0.026 | [5] -0.323 | [6] -0.035 | [7] -0.166 | [8] 0.08 | [9] 0.014 | [10] -0.158 | [11] -0.085 | [12] 0.056 | [13] 0.093 | [14] 0.182 | [15] 0.099 | [16] -0.043 | [17] 0.265 | [18] 0.251 | [19] 0.128 | [20] -0.699

FBXL12 (UniProt Q9NXK8)
inactive: [1] 0.007 | [2] 0.177 | [3] 0.028 | [4] -0.03 | [5] 0.032 | [6] -0.068 | [7] 0.12 | [8] -0.071 | [9] -0.121 | [10] 0.06 | [11] 0.229 | [12] -0.01 | [13] 0.018 | [14] -0.01 | [15] -0.038 | [16] -0.014 | [17] -0.187 | [18] -0.252 | [19] -0.014 | [20] 0.151

Looked up one by one from the list above, 2 records:
FBXO5 (UniProt Q9UKT4)
inactive: [1] -0.014 | [2] 0.117 | [3] 0.003 | [4] -0.007 | [5] -0.079 | [6] 0.086 | [7] -0.04 | [8] 0.01 | [9] 0.008 | [10] 0.028 | [11] 0 | [12] -0.044 | [13] -0.033 | [14] 0.048 | [15] -0.001 | [16] 0.07 | [17] 0.144 | [18] 0.011 | [19] 0.101 | [20] -0.032

FBXL12 (UniProt Q9NXK8)
inactive: [1] 0.007 | [2] 0.177 | [3] 0.028 | [4] -0.03 | [5] 0.032 | [6] -0.068 | [7] 0.12 | [8] -0.071 | [9] -0.121 | [10] 0.06 | [11] 0.229 | [12] -0.01 | [13] 0.018 | [14] -0.01 | [15] -0.038 | [16] -0.014 | [17] -0.187 | [18] -0.252 | [19] -0.014 | [20] 0.151

The results go on:

FAM234A (UniProt Q9H0X4)
inactive: [1] 0.044 | [2] -0.036 | [3] -0.111 | [4] 0.018 | [5] 0.007 | [6] 0.037 | [7] -0.01 | [8] -0.012 | [9] 0.001 | [10] 0.055 | [11] -0.02 | [12] 0.056 | [13] -0.053 | [14] -0.009 | [15] 0.011 | [16] 0.103 | [17] 0.031 | [18] -0.024 | [19] 0.023 | [20] 0.012

FCSK isoform 2 (UniProt Q8N0W3)
inactive: [1] 0.006 | [2] 0.041 | [3] 0.097 | [4] 0.091 | [5] -0.008 | [6] 0.004 | [7] -0.021 | [8] 0.017 | [9] -0.061 | [10] 0.024 | [11] 0.058 | [12] -0.004 | [13] -0.04 | [14] -0.046 | [15] -0.026 | [16] 0.076 | [17] 0.024 | [18] -0.013 | [19] -0.025 | [20] -0.031

FLII (UniProt Q13045)
inactive: [1] 0.012 | [2] 0.038 | [3] -0.006 | [4] 0.015 | [5] 0.009 | [6] 0.018 | [7] -0.021 | [8] -0.018 | [9] 0.037 | [10] -0.05 | [11] -0.032 | [12] -0.017 | [13] 0.035 | [14] 0.027 | [15] -0.016 | [16] -0.047 | [17] 0.017 | [18] 0.016 | [19] -0.02 | [20] -0.049

FASN (UniProt P49327)
inactive: [1] -0.012 | [2] 0.049 | [3] 0.036 | [4] 0.016 | [5] -0.008 | [6] 0.062 | [7] 0.043 | [8] 0.014 | [9] -0.009 | [10] -0.025 | [11] 0 | [12] -0.037 | [13] 0.044 | [14] 0.008 | [15] -0.082 | [16] -0.017 | [17] -0.011 | [18] -0.015 | [19] -0.011 | [20] 0.025

FARSB (UniProt Q9NSD9)
inactive: [1] 0.004 | [2] 0.046 | [3] 0 | [4] -0.009 | [5] 0.033 | [6] 0.015 | [7] 0.006 | [8] 0.017 | [9] 0.012 | [10] -0.001 | [11] -0.028 | [12] -0.036 | [13] 0.009 | [14] 0.022 | [15] -0.023 | [16] -0.066 | [17] -0.004 | [18] 0.012 | [19] 0.004 | [20] -0.004

FDX2 (UniProt Q6P4F2)
inactive: [1] 0.1 | [2] 0.017 | [3] -0.081 | [4] -0.043 | [5] 0.061 | [6] 0.07 | [7] -0.017 | [8] -0.037 | [9] -0.035 | [10] -0.119 | [11] 0.116 | [12] 0.042 | [13] -0.08 | [14] -0.099 | [15] -0.048 | [16] 0.084 | [17] 0.062 | [18] -0.059 | [19] 0.09 | [20] 0.061

FASTKD2 (UniProt Q9NYY8)
inactive: [1] 0.006 | [2] 0.053 | [3] -0.01 | [4] 0.022 | [5] 0.022 | [6] 0.056 | [7] 0.04 | [8] -0.01 | [9] -0.025 | [10] 0.028 | [11] 0.02 | [12] -0.012 | [13] -0.038 | [14] -0.018 | [15] -0.042 | [16] -0.13 | [17] -0.025 | [18] -0.008 | [19] -0.006 | [20] -0.027
